Values from PubChem BioAssay AID686938 (Drosophila RNAi Screening Center, 2013).

Purpose: 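Fly genes required for calcium entry once internal stores are emptied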 (primary screen)
Cell system: Drosophila S2R+ cells
Reagents: long dsRNA against Drosophila genes, about 0.25 µg dsRNA per well, roughly 10,000 cells
Duration: 5 days of knock-down before the calcium assay
Challenge: thapsigargin (SERCA pump blocker) to empty calcium stores; entry signal taken 4 min after adding it
Read-out: 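Duplicate raw fluo-4 intensities per well from a plate reader, at rest and four minutes after thapsigargin emptied calcium stores; entry-to-rest ratio filled for only some wells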
Reading the numbers: calcium entry signal: higher = stronger calcium signal after store depletion; resting calcium signal: higher = higher resting calcium signal
Units: calcium entry signal in fluorescence units; resting calcium signal in fluorescence units
Call rule: 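Called when the plate z-score of the entry-to-rest ratio, mean of duplicates, falls below −3; wells with low overall dye signal (Fmax z below −2) or more than five off-targets excluded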
Calls: active = strongly reduced calcium entry; inactive = no strong reduction
The deposit covers about 23,000 reagents; shown is an unselected part of those with a known target gene and a result. Of all reagents, 75 (0.33%) were called active. 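Raw plate signals without normalisation; calls rest on plate z-scores that were not deposited; ratio present for only 364 wells.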 Reagent sequences are not shown. Not given: the dose of the treatment.

Vha68-2 [DRSC02721] — calcium entry signal, replicate 1: 3.44e7; calcium entry signal, replicate 2: 4.39e7; resting calcium signal, replicate 1: 2.25e7; resting calcium signal, replicate 2: 2.50e7; Outcome: active
Cyp4ac3 [DRSC03304] — calcium entry signal, replicate 1: 4.95e7; resting calcium signal, replicate 1: 2.00e7; Outcome: inactive
CG13540 [DRSC04182] — calcium entry signal, replicate 1: 2.68e7; calcium entry signal, replicate 2: 2.67e7; resting calcium signal, replicate 1: 1.45e7; resting calcium signal, replicate 2: 1.23e7; Outcome: inactive
GluClalpha [DRSC16680] — calcium entry signal, replicate 1: 4.78e7; calcium entry signal, replicate 2: 4.87e7; resting calcium signal, replicate 1: 4.22e7; resting calcium signal, replicate 2: 2.15e7; Outcome: inactive
CG3760 [DRSC04415] — calcium entry signal, replicate 1: 5.42e7; calcium entry signal, replicate 2: 2.78e7; resting calcium signal, replicate 1: 2.48e7; resting calcium signal, replicate 2: 1.43e7; Outcome: inactive
msd5 [DRSC08560] — calcium entry signal, replicate 1: 3.22e7; calcium entry signal, replicate 2: 4.55e7; resting calcium signal, replicate 1: 1.72e7; resting calcium signal, replicate 2: 1.98e7; Outcome: inactive
CG31141 [DRSC13646] — calcium entry signal, replicate 1: 3.37e7; calcium entry signal, replicate 2: 3.79e7; resting calcium signal, replicate 1: 1.68e7; resting calcium signal, replicate 2: 1.85e7; Outcome: inactive
CG11349 [DRSC08179] — calcium entry signal, replicate 1: 2.10e7; calcium entry signal, replicate 2: 3.60e7; resting calcium signal, replicate 1: 1.14e7; resting calcium signal, replicate 2: 1.69e7; Outcome: inactive

2 entries from above, sorted by “calcium entry signal, replicate 2”, ascending.
CG3760 [DRSC04415] — calcium entry signal, replicate 1: 5.42e7; calcium entry signal, replicate 2: 2.78e7; resting calcium signal, replicate 1: 2.48e7; resting calcium signal, replicate 2: 1.43e7; Outcome: inactive
msd5 [DRSC08560] — calcium entry signal, replicate 1: 3.22e7; calcium entry signal, replicate 2: 4.55e7; resting calcium signal, replicate 1: 1.72e7; resting calcium signal, replicate 2: 1.98e7; Outcome: inactive

The results go on:
CG15201 [DRSC19648] — calcium entry signal, replicate 1: 3.64e7; calcium entry signal, replicate 2: 4.58e7; resting calcium signal, replicate 1: 1.77e7; resting calcium signal, replicate 2: 2.21e7; Outcome: inactive
CG34229 [DRSC06316] — calcium entry signal, replicate 1: 3.25e7; calcium entry signal, replicate 2: 4.03e7; resting calcium signal, replicate 1: 1.76e7; resting calcium signal, replicate 2: 1.91e7; Outcome: inactive
CG5853 [DRSC01103] — calcium entry signal, replicate 1: 4.17e7; calcium entry signal, replicate 2: 3.95e7; resting calcium signal, replicate 1: 2.12e7; resting calcium signal, replicate 2: 1.84e7; Outcome: inactive
CG5853 [DRSC02906] — calcium entry signal, replicate 1: 6.13e7; resting calcium signal, replicate 1: 2.72e7; Outcome: inactive
